Data: article PMC11359516, “Methionine Synthase 2 Represses Stem Cell Maintenance of Arabidopsis thaliana in Response to Salt Stress” (Plants, 2024)
These are yes or no findings as the source states them, for the method shown. In cells and extracts the contact can be indirect. Some entries that bind do so weakly or less than the wild type. Where a sequence is shown, tags or fusion partners need not be part of it. Values belong to the binder of their own block, whether it stands above or below them.

Sequences of proteins named here, by UniProt entry; tags and fusion partners are left off.
UniProt P62577: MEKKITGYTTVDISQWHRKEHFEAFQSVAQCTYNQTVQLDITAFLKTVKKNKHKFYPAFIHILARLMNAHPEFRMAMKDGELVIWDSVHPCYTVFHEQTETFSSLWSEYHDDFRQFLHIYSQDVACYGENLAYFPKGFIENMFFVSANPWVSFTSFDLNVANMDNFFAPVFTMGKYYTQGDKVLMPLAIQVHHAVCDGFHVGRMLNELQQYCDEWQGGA

What was measured:
Assay in all cases: split reporter; BiFC with YFPC and YFPN fusions and Coilin:RFP as nucleus marker in Nicotiana benthamiana leaf epidermal cells; fluorescence examined 2 d after Agrobacterium infiltration
[1] = target: Chloramphenicol Acetyltransferase (CHL):YFPN (UniProt P62577)
[2] = target: T1, WOX5-YFPN (Arabidopsis thaliana) (UniProt Q8H1D2)
T1 sequence: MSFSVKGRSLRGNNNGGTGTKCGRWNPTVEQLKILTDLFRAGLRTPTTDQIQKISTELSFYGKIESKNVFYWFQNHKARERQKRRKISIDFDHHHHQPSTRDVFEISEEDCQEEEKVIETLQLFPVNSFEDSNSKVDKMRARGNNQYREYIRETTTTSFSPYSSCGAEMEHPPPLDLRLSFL

[3] = target: T2, WOX1-YFPN (Arabidopsis thaliana) (UniProt Q6X7K0)
T2 sequence: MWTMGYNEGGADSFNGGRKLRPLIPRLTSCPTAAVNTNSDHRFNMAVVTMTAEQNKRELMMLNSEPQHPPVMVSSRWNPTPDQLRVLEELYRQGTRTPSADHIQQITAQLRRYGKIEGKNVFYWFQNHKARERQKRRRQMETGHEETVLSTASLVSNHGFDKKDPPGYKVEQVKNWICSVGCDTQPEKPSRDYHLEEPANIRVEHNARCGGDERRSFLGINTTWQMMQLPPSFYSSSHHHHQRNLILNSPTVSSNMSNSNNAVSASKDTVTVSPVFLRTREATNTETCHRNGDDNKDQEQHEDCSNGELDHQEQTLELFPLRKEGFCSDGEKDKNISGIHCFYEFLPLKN

binding [1]: no binding
binding [2]: binds
binding [3]: no binding
B1: AtMS2-YFPC (AtMS2 in fusion with the C-terminal half of YFP) (enzyme, UniProt Q9SRV5 1-765)
chain: MASHIVGYPRMGPKRELKFALESFWDGKSSADDLQKVSADLRSDIWKQMSAAGIKYIPSNTFSHYDQVLDTTAMLGAVPSRYGFTSGEIGLDVYFSMARGNASVPAMEMTKWFDTNYHYIVPELGPEVKFSYASHKAVNEYKEAKALGVETVPVLVGPVSYLLLSKLAKGVDKSFDLLSLLPKILPVYKEVIAELKAAGASWIQLDEPLFVMDLEGHKLQAFSGAYAELESTLSGLNVLVETYFADIPAEAYKTLTSLKGVTAFGFDLVRGTKTIDLIKSGFPQGKYLFAGVVDGRNIWANDLAASLITLQSLEGVVGKDKLVVSTSCSLLHTAVDLINETKLDAEIKSWLAFAAQKVVEVDALAKALAGQTNESFFTANADALSSRRSSPRVTNESVQKAAAALKGSDHRRTTEVSARLDAQQKKLNLPILPTTTIGSFPQTVELRRVRREYKAKKISEEDYVKAIKEEIKKVVDIQEDLDIDVLVHGEPERNDMVEYFGEQLSGFAFTANGWVQSYGSRCVKPPVIYGDVSRPKPMTVFWSSTAQSMTKRPMKGMLTGPVTILNWSFVRNDQPRHETCYQIALAIKDEVEDLEKGGIGVIQIDEAALREGLPLRKAEHSFYLDWAVHSFRITNCGVQDSTQIHTHMCYSNFNDIIHSIIDMDADVITIENSRSDEKLLSVFREGVKYGAGIGPGVYDIHSPRIPSTDEIADRINKMLAVLEQNILWVNPDCGLKTRKYTEVKPALKAMVDAAKLIRSQLGSAK

binding [2]: binds
B2: AtMS1-YFPC (enzyme, UniProt O50008 1-765)
chain: MASHIVGYPRMGPKRELKFALESFWDGKSTAEDLQKVSADLRSSIWKQMSAAGTKFIPSNTFAHYDQVLDTTAMLGAVPPRYGYTGGEIGLDVYFSMARGNASVPAMEMTKWFDTNYHYIVPELGPEVNFSYASHKAVNEYKEAKALGVDTVPVLVGPVSYLLLSKAAKGVDKSFELLSLLPKILPIYKEVITELKAAGATWIQLDEPVLVMDLEGQKLQAFTGAYAELESTLSGLNVLVETYFADIPAEAYKTLTSLKGVTAFGFDLVRGTKTLDLVKAGFPEGKYLFAGVVDGRNIWANDFAASLSTLQALEGIVGKDKLVVSTSCSLLHTAVDLINETKLDDEIKSWLAFAAQKVVEVNALAKALAGQKDEALFSANAAALASRRSSPRVTNEGVQKAAAALKGSDHRRATNVSARLDAQQKKLNLPILPTTTIGSFPQTVELRRVRREYKAKKVSEEDYVKAIKEEIKKVVDLQEELDIDVLVHGEPERNDMVEYFGEQLSGFAFTANGWVQSYGSRCVKPPVIYGDVSRPKAMTVFWSAMAQSMTSRPMKGMLTGPVTILNWSFVRNDQPRHETCYQIALAIKDEVEDLEKGGIGVIQIDEAALREGLPLRKSEHAFYLDWAVHSFRITNCGVQDSTQIHTHMCYSHFNDIIHSIIDMDADVITIENSRSDEKLLSVFREGVKYGAGIGPGVYDIHSPRIPSSEEIADRVNKMLAVLEQNILWVNPDCGLKTRKYTEVKPALKNMVDAAKLIRSQLASAK
